Laboratory results taken from patent US10639380B2, “Flavivirus-binding, entry-obstructing, protease-resistant peptide (RI57)” (priority 2016, dated 2020).
Part of at least one peptide drawing is inferred or uncertain, most often the ends. Square brackets hold non-standard residues; d marks the D form. Peptide text beside a SMILES is read from it.

Legend:
Zika virus = test: Focus-forming unit (FFU) assay, Zika virus; assay type: cell-based
DENV2 [1] = test: qRT-PCR virus-binding assay; assay type: cell-based, dengue virus
Protocol: Further to characterize DENV binding to host cells, experiments were conducted to analyze the first step in the process of infection. Infection of LLC-MK2 target cells in six-well plates was executed in duplicate using 10^5 FFU of DENV2 pre-incubated 45 min at 4° C. with either DN57, or RI57 peptide, or pooled heterotypic anti-DENV human serum. Following said 45 min exposure at 4° C., infected monolayers were washed with PBS and harvested by cell scraping, added to a 1.5 ml microfuge tube containing 350 μl AR-200 silicone oil (Sigma-Aldrich, St. Louis, Mo.), mixed with 150 μl silicone fluid (Thomas, Swedesboro, N.J.), and microfuge spun 1 min at 14,000 rpm to separate unbound virus from cell-bound virus. The tubes were then submerged in liquid nitrogen for 30 sec to freeze the contents. The cell pellets with (or without) bound virus were recovered by removing the bottoms of the tubes with small wire clippers and placing them in 15 ml conical tubes. By means of the Qiagen Viral RNA Extraction Kit (Qiagen, Chatsworth, Calif.), viral RNA was extracted from cell pellets.
Using the Quantitect SYBR Green RT-PCR kit (Qiagen Inc., Chatsworth, Calif.), qRT-PCR was performed on the extracted RNA. Manufacturer's specifications and amplification protocols were followed utilizing dengue-specific primers: (DenF: 5-[…]-3 and DenR: 5-[…]-3). […] The following amplification protocol was used: 50° C. for 20 min to reverse transcribe the RNA; 95° C. for 15 min to activate the HotStart Taq DNA Polymerase; 45 PCR cycles: 94° C. for 15 sec; 50° C. for 15 sec; 72° C. for 30 sec; and fluorescence data acquisition was the final step. […]
To test whether DN57 and RI57 interfere directly with virus binding to target cells, binding assays were conducted using qRT-PCR to monitor attachment of virus to target cells. […] RNA was then extracted from the cell pellets and amplified with DENV2-specific primers to quantitate the presence of virus. […]

DENV2 [2] = test: Pre-binding FFU assay (reversibility of peptide binding); assay type: cell-based, dengue virus
Protocol: Experiments were conducted further to characterize observed inhibitory effects and determine whether these may have been due to unintended interference owing to modifications of target LLC-MK2 cell surfaces. RI57 was incubated with target cells for 1 h at 4° C., the monolayer cells were then rinsed with PBS, and approximately 200 FFU of DENV2 allowed to infect the cells at 4° C. Agarose overlays, incubation, and immunological detection tests were conducted as described above for the focus-forming assay.
In this assay, DN57 or RI57 was added to target cells for 1 h prior to infection with DENV2 to determine whether these peptides inhibit entry through interaction directly with target cells. […] Table 5. (and also FIG. 7) presents results showing that peptide binding can be reversible. (and FIG. 5.). Introducing a step diluting the concentration of peptide 10-fold after incubating/1 h at 20° C. and then infecting immediately thereafter reverses this inhibition. Errors around the means are depicted as ±sd.

DENV2 [3] = test: LLC-MK2 FFU assay after trypsin exposure of peptide; assay type: cell-based, dengue virus
Protocol: Table 7. […] The peptides were exposed to trypsin for ten minutes at 37° C. before STI was added and further incubated ten minutes. The resulting peptide, in each case, was incubated with DENV2 for 1 hour at 20° C. and then this preparation used to infect confluent LLC-MK2 monolayers.

SMILES: CSCC[C@@H](NC(=O)[C@H](NC(=O)[C@@H](Cc1c[nH]c2ccccc12)NC(=O)[C@@H](CCCNC(=N)N)NC(=O)[C@@H](Cc1c[nH]cn1)NC(=O)[C@@H](Cc1c[nH]c2ccccc12)NC(=O)[C@@H](Cc1ccccc1)NC(=O)[C@@H](Cc1c[nH]cn1)NC(=O)[C@@H](CCCNC(=N)N)NC(=O)[C@@H](CC(C)C)NC(=O)[C@@H](CCCNC(=N)N)NC(=O)[C@@H](CC(C)C)NC(=O)[C@H]1CCCN1C(=O)[C@@H](Cc1ccc(O)cc1)NC(=O)[C@@H](CC(N)=O)NC(=O)[C@H]1CCCN1C(=O)CNC(=O)[C@@H](CCCCN)NC(=O)[C@@H](CC(N)=O)NC(=O)[C@@H](CCCCN)NC(=O)[C@@H](CCC(N)=O)NC(=O)[C@@H](CC(N)=O)NC(=O)[C@@H](CCC(N)=O)NC(=O)[C@@H](CCC(N)=O)NC(=O)[C@@H](Cc1c[nH]c2ccccc12)NC(=O)[C@H]1CCCN1)C(C)C)C(=O)N[C@H](Cc1c[nH]c2ccccc12)C(=O)N[C@H](CCCNC(=N)N)C(=O)O [RI57] (H-[dP][dW][dQ][dQ][dN][dQ][dK][dN][dK]G[dP][dN][dY][dP][dL][dR][dL][dR][dH][dF][dW][dH][dR][dW][dV][dM][dW][dR]-OH; N-terminus and C-terminus assumed)
- inhibition of Zika virus infection, level approached (Zika virus): ~100%
- % Inhibition of Zika virus infection (Zika virus; 0.1 uM peptide): 8.7%
- % Inhibition of Zika virus infection (Zika virus; 0.5 uM peptide): −10.0%
- % Inhibition of Zika virus infection (Zika virus; 1.0 uM peptide): −21.3%
- % Inhibition of Zika virus infection (Zika virus; 5.0 uM peptide): −43.8%
- % Inhibition of Zika virus infection (Zika virus; 10.0 uM peptide): 4.9%
- % Inhibition of Zika virus infection (Zika virus; 20.0 uM peptide): 71.0%
- % Inhibition of Zika virus infection (Zika virus; 35.0 uM peptide): 95.8%
- % Infection Inhibition (DENV2 [1]; DENV2 + 10 uM peptide): 98.6%
- % Infection Inhibition (DENV2 [1]; DENV2 + 10 uM peptide + Trypsin + STI): 99.0%
- binding of virus to cells (DENV2 [1]; virus co-incubated with peptide 45 min at 4° C.): inhibit binding of virus to cells
- % DENV2 Infection Inhibition (DENV2 [2]; PBS Rinse (text: peptide diluted 10-fold after incubation, then infecting)): −15.7%
- % DENV2 Infection Inhibition (DENV2 [2]; incubation with 10 μM/1 h at 20° C., no rinse): 60.6%
- inhibition on treatment of target cells with peptide prior to DENV2 infection (DENV2 [2]; peptide added to target cells for 1 h prior to infection): no evidence of inhibition
- % Infection Inhibition (DENV2 [3]; DENV2 + 10 uM peptide): 98.6%
- % Infection Inhibition (DENV2 [3]; DENV2 + 10 uM peptide + Trypsin + STI (trypsin ten minutes at 37° C.)): 99.0%
- DENV2 inhibitory activity after trypsin exposure (DENV2 [3]; trypsin ten minutes at 37° C. before STI): retained its inhibitory activity
